# Data taken from the supplement of paper PMC8728848.
# The other results are listed elsewhere or left out.
# B1: Epa21 (Candida glabrata) (protein)
# chain: MGSSHHHHHHSSGLVPRGSHMASTPNIESHPQGCSPVDTSGIKPGLKMDLYRFPITPPGTGCWSWDWLTVTPDFPRSGYWKWPKIAEVDGVVGPLHLDSGHPTCDPLTSVLPHGFNYLQSITTTNFTMVLHGYFVPKQSGKYTFEFKADDALLLNLGAGNAFSCCDYNNSQYNQGEYLAYAIWSKNNQTATLYLEKGIYYPIRVFYHNRCCGAYMDVVYYFNDSPIPNRDFSGLLFSIPDSDSCDANI
# Columns and labels:
# Experiment in all cases: glycan array binding signal (z-score within array); higher = stronger binding
# Conditions in all cases: glycan notation: IUPAC condensed, linker removed
# [1] = target: Neu5Ac(a2-6)Gal
# Outline: (§1)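 Columns mapping to the same glycan were averaged after glycan names were converted to IUPAC-condensed notation. The data come from 3228 arrays in the Consortium for Functional Glycomics database, limited to those with an available protein sequence. Binding is reported as a within-array Z-score averaged across arrays of one protein sequence and across linkers.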
# [2] = target: Neu5Ac(a2-6)Gal(b1-3)GlcNAc(b1-3)[Gal(b1-4)GlcNAc(b1-6)]Gal(b1-4)Glc
# Outline: as §1
# [3] = target: Neu5Ac(a2-6)Gal(b1-4)Glc
# Outline: as §1
# [4] = target: Neu5Ac(a2-6)Gal(b1-4)GlcNAc
# Outline: as §1
# [5] = target: Neu5Ac(a2-6)Gal(b1-4)GlcNAc(b1-2)Man
# Outline: as §1
# [6] = target: Neu5Ac(a2-6)Gal(b1-4)GlcNAc(b1-2)Man(a1-3)Man(b1-4)GlcNAc(b1-4)GlcNAc
# Outline: as §1
# [7] = target: Neu5Ac(a2-6)Gal(b1-4)GlcNAc(b1-2)Man(a1-3)[Gal(b1-4)GlcNAc(b1-2)Man(a1-6)]Man(b1-4)GlcNAc(b1-4)GlcNAc
# Outline: as §1
# [8] = target: Neu5Ac(a2-6)Gal(b1-4)GlcNAc(b1-2)Man(a1-3)[GlcNAc(b1-2)Man(a1-6)]Man(b1-4)GlcNAc(b1-4)GlcNAc
# Outline: as §1
# [9] = target: Neu5Ac(a2-6)Gal(b1-4)GlcNAc(b1-2)Man(a1-3)[GlcNAc(b1-4)][Neu5Ac(a2-6)Gal(b1-4)GlcNAc(b1-2)Man(a1-6)]Man(b1-4)GlcNAc(b1-4)GlcNAc
# Outline: as §1
# [10] = target: Neu5Ac(a2-6)Gal(b1-4)GlcNAc(b1-2)Man(a1-3)[Man(a1-6)]Man(b1-4)GlcNAc(b1-4)GlcNAc
# Outline: as §1
# [11] = target: Neu5Ac(a2-6)Gal(b1-4)GlcNAc(b1-2)Man(a1-3)[Neu5Ac(a2-3)Gal(b1-4)GlcNAc(b1-2)Man(a1-6)]Man(b1-4)GlcNAc(b1-4)GlcNAc
# Outline: as §1
# [12] = target: Neu5Ac(a2-6)Gal(b1-4)GlcNAc(b1-2)Man(a1-3)[Neu5Ac(a2-6)Gal(b1-4)GlcNAc(b1-2)Man(a1-6)]Man(b1-4)GlcNAc(b1-4)GlcNAc
# Outline: as §1
# [13] = target: Neu5Ac(a2-6)Gal(b1-4)GlcNAc(b1-2)Man(a1-3)[Neu5Ac(a2-6)Gal(b1-4)GlcNAc(b1-2)Man(a1-6)]Man(b1-4)GlcNAc(b1-4)[Fuc(a1-6)]GlcNAc
# Outline: as §1
# [14] = target: Neu5Ac(a2-6)Gal(b1-4)GlcNAc(b1-2)Man(a1-6)Man(b1-4)GlcNAc(b1-4)GlcNAc
# Outline: as §1
# [15] = target: Neu5Ac(a2-6)Gal(b1-4)GlcNAc(b1-2)Man(a1-6)[Gal(b1-4)GlcNAc(b1-2)Man(a1-3)]Man(b1-4)GlcNAc(b1-4)GlcNAc
# Outline: as §1
# [16] = target: Neu5Ac(a2-6)Gal(b1-4)GlcNAc(b1-2)Man(a1-6)[GlcNAc(b1-2)Man(a1-3)]Man(b1-4)GlcNAc(b1-4)GlcNAc
# Outline: as §1
# [17] = target: Neu5Ac(a2-6)Gal(b1-4)GlcNAc(b1-2)Man(a1-6)[Man(a1-3)]Man(b1-4)GlcNAc(b1-4)GlcNAc
# Outline: as §1
# [18] = target: Neu5Ac(a2-6)Gal(b1-4)GlcNAc(b1-2)[Neu5Ac(a2-6)Gal(b1-4)GlcNAc(b1-4)]Man(a1-3)[GlcNAc(b1-4)][Neu5Ac(a2-6)Gal(b1-4)GlcNAc(b1-2)[Neu5Ac(a2-6)Gal(b1-4)GlcNAc(b1-6)]Man(a1-6)]Man(b1-4)GlcNAc(b1-4)GlcNAc
# Outline: as §1
# [19] = target: Neu5Ac(a2-6)Gal(b1-4)GlcNAc(b1-2)[Neu5Ac(a2-6)Gal(b1-4)GlcNAc(b1-4)]Man(a1-3)[GlcNAc(b1-4)][Neu5Ac(a2-6)Gal(b1-4)GlcNAc(b1-4)Man(a1-6)]Man(b1-4)GlcNAc(b1-4)GlcNAc
# Outline: as §1
# [20] = target: Neu5Ac(a2-6)Gal(b1-4)GlcNAc(b1-2)[Neu5Ac(a2-6)Gal(b1-4)GlcNAc(b1-6)]Man(a1-6)[Neu5Ac(a2-6)Gal(b1-4)GlcNAc(b1-2)Man(a1-3)][GlcNAc(b1-4)]Man(b1-4)GlcNAc(b1-4)GlcNAc
# Outline: as §1
# [21] = target: Neu5Ac(a2-6)Gal(b1-4)GlcNAc(b1-3)Gal(b1-3)GlcNAc
# Outline: as §1
# [22] = target: Neu5Ac(a2-6)Gal(b1-4)GlcNAc(b1-3)Gal(b1-4)GlcNAc
# Outline: as §1
# [23] = target: Neu5Ac(a2-6)Gal(b1-4)GlcNAc(b1-3)Gal(b1-4)GlcNAc(b1-2)Man(a1-3)[Neu5Ac(a2-6)Gal(b1-4)GlcNAc(b1-3)Gal(b1-4)GlcNAc(b1-2)Man(a1-6)]GalNAc
# Outline: as §1
# [24] = target: Neu5Ac(a2-6)Gal(b1-4)GlcNAc(b1-3)Gal(b1-4)GlcNAc(b1-3)Gal(b1-4)GlcNAc
# Outline: as §1
# [25] = target: Neu5Ac(a2-6)Gal(b1-4)GlcNAc(b1-3)Gal(b1-4)GlcNAc(b1-3)Gal(b1-4)GlcNAc(b1-2)Man(a1-3)[Neu5Ac(a2-6)Gal(b1-4)GlcNAc(b1-3)Gal(b1-4)GlcNAc(b1-3)Gal(b1-4)GlcNAc(b1-2)Man(a1-6)]GalNAc
# Outline: as §1
# [26] = target: Neu5Ac(a2-6)Gal(b1-4)GlcNAc(b1-3)Gal(b1-4)GlcNAc(b1-3)GalNAc
# Outline: as §1
# [27] = target: Neu5Ac(a2-6)Gal(b1-4)GlcNAc(b1-3)Gal(b1-4)GlcNAc(b1-3)[Neu5Ac(a2-6)Gal(b1-4)GlcNAc(b1-3)Gal(b1-4)GlcNAc(b1-6)]GalNAc
# Outline: as §1
# [28] = target: Neu5Ac(a2-6)Gal(b1-4)GlcNAc(b1-3)Gal(b1-4)GlcNAc(b1-6)[Gal(b1-3)]GalNAc
# Outline: as §1
# [29] = target: Neu5Ac(a2-6)Gal(b1-4)GlcNAc(b1-3)Gal(b1-4)[Fuc(a1-3)]GlcNAc(b1-3)Gal(b1-4)[Fuc(a1-3)]GlcNAc
# Outline: as §1
# [30] = target: Neu5Ac(a2-6)Gal(b1-4)GlcNAc(b1-3)GalNAc
# Outline: as §1
# [31] = target: Neu5Ac(a2-6)Gal(b1-4)GlcNAc(b1-3)[Neu5Ac(a2-6)Gal(b1-4)GlcNAc(b1-6)]GalNAc
# Outline: as §1
# [32] = target: Neu5Ac(a2-6)Gal(b1-4)GlcNAc(b1-6)GalNAc
# Outline: as §1
# [33] = target: Neu5Ac(a2-6)Gal(b1-4)GlcNAc(b1-6)[Gal(b1-3)GlcNAc(b1-3)]Gal(b1-4)Glc
# Outline: as §1
# [34] = target: Neu5Ac(a2-6)Gal(b1-4)GlcNAc(b1-6)[Gal(b1-3)]GalNAc
# Outline: as §1
# [35] = target: Neu5Ac(a2-6)Gal(b1-4)GlcNAc6S
# Outline: as §1
# [36] = target: Neu5Ac(a2-6)GalNAc
# Outline: as §1
# [37] = target: Neu5Ac(a2-6)GalNAc(b1-4)GlcNAc
# Outline: as §1
# [38] = target: Neu5Ac(a2-6)GalNAc(b1-4)GlcNAc6S
# Outline: as §1
binder,measurement,setting,value
B1,glycan array binding signal (z-score),[1],-0.155
same,glycan array binding signal (z-score),[2],-0.825
same,glycan array binding signal (z-score),[3],-0.472
same,glycan array binding signal (z-score),[4],-0.803
same,glycan array binding signal (z-score),[5],-0.212
same,glycan array binding signal (z-score),[6],0.044
same,glycan array binding signal (z-score),[7],-0.438
same,glycan array binding signal (z-score),[8],-0.421
same,glycan array binding signal (z-score),[9],-0.514
same,glycan array binding signal (z-score),[10],0.077
same,glycan array binding signal (z-score),[11],0.205
same,glycan array binding signal (z-score),[12],-0.266
same,glycan array binding signal (z-score),[13],0.072
same,glycan array binding signal (z-score),[14],-0.384
same,glycan array binding signal (z-score),[15],-0.251
same,glycan array binding signal (z-score),[16],-0.103
same,glycan array binding signal (z-score),[17],-0.363
same,glycan array binding signal (z-score),[18],0.521
same,glycan array binding signal (z-score),[19],0.007
same,glycan array binding signal (z-score),[20],-0.124
same,glycan array binding signal (z-score),[21],0.285
same,glycan array binding signal (z-score),[22],-0.589
same,glycan array binding signal (z-score),[23],2.55
same,glycan array binding signal (z-score),[24],0.2
same,glycan array binding signal (z-score),[25],5.42
same,glycan array binding signal (z-score),[26],-0.315
same,glycan array binding signal (z-score),[27],0.243
same,glycan array binding signal (z-score),[28],0.258
same,glycan array binding signal (z-score),[29],-0.189
same,glycan array binding signal (z-score),[30],0.17
same,glycan array binding signal (z-score),[31],0.483
same,glycan array binding signal (z-score),[32],1.06
same,glycan array binding signal (z-score),[33],-0.363
same,glycan array binding signal (z-score),[34],0.521
same,glycan array binding signal (z-score),[35],0.063
same,glycan array binding signal (z-score),[36],-0.255
same,glycan array binding signal (z-score),[37],-0.642
same,glycan array binding signal (z-score),[38],-0.594

# A second format for part of the listing above:
binder | measurement | setting | value
B1 | glycan array binding signal (z-score) | [29] | -0.189
same | glycan array binding signal (z-score) | [30] | 0.17
